The assay deals with HEK293T (UBE3A T485A transfected, BAR Wnt reporter). Kind of assay: Wnt reporter firefly/Renilla luciferase ratio relative to plate median (fold (linear ratio)); higher = more Wnt/beta-catenin reporter activation. Conditions: 24 h. The gist of the method:
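Chemicals at 0.01–100 uM were left on transfected HEK293T cells for 24 h, after a four-hour wait following transfection. The cells held a BAR firefly luciferase Wnt reporter, TK-Renilla and an expression plasmid. Wnt activity, as the firefly/Renilla ratio from a Dual-Glo luciferase readout, and cell health, as raw Renilla, were median-centred within each plate. Results average four biological replicates.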

The highest values were mostly taken out for another list; the other results follow.

Take `CCCCCCCCc1ccc(O)cc1` [4-Octylphenol]: the “Wnt reporter firefly/Renilla luciferase ratio” value was 1.02 (concentration: 0.1 uM), 1.06 (concentration: 1 uM), 0.827 (concentration: 10 uM) and 1.27 (concentration: 100 uM).

The record behind these values is the supplement of paper PMC9254222.
